The other results are listed elsewhere or left out. Many values rest on one well or one pass, so single values are uncertain.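 Imaging used 1,536-well plates; nuclei positive for cleaved PARP by antibody were divided by total DNA-stained nuclei to yield the apoptosis fraction. Doses for screening kept most cells viable, and cell lines differ markedly in resting and induced cleaved-PARP levels.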
These compounds were tested on SkMel30 (assay: cleaved PARP positive nuclei fraction relative to DMSO control; melanoma cells; higher = more apoptosis). Conditions: library dose: low library concentration; 72 h.

Row | Structure (SMILES) | cleaved PARP positive nuclei fraction [%]
1 | N#Cc1c(O)c2c(-c3ccc(-c4ccccc4O)cc3)csc2[nH]c1=O + COC(=O)c1sccc1S(=O)(=O)Nc1ccc(Nc2ccccc2)cc1OC [GSK0660] (first compound 2 µM, partner dose 1 µM) | 135
2 | NCC(=O)Nc1ccc(-n2nc(C(F)(F)F)cc2-c2ccc3c(ccc4ccccc43)c2)cc1 + CN(NC(=O)CC(=O)NN(C)C(=S)c1ccccc1)C(=S)c1ccccc1 [STA4783] (first compound 1 µM, partner dose 0.006 µM) | 129
3 | NCC(=O)Nc1ccc(-n2nc(C(F)(F)F)cc2-c2ccc3c(ccc4ccccc43)c2)cc1 + COc1cc(N2CCC(N3CCN(C)CC3)CC2)ccc1Nc1ncc(Cl)c(Nc2ccccc2S(=O)(=O)C(C)C)n1 [NVP-TAE684] (first compound 1 µM, partner dose 0.08 µM) | 92.5
4 | CCc1ccc(CCOc2ccc(CC3SC(=O)NC3=O)cc2)nc1 (stereo unspecified) [pioglitazone] + O=C(O)C(=O)Nc1sc2c(c1C(=O)O)CCNC2 [TCS401] (first compound 2 µM, partner dose 1.66667 µM) | 86.2
5 | CCN(CC)CCCCNc1ncc2cc(-c3cc(OC)cc(OC)c3)c(NC(=O)NC(C)(C)C)nc2n1 + Oc1cc(-c2nc(-c3ccccc3)[nH]c2-c2ccncc2)ccc1Cl [L779450] (first compound 0.1 µM, partner dose 0.2 µM) | 253
6 | O=C1NC(=O)/C(=C/c2ccc(-c3ccc(F)cc3O)o2)S1 + Cc1cc([N+](=O)[O-])ccc1NS(=O)(=O)c1cc(Cl)ccc1Cl [FH535] (first compound 1 µM, partner dose 1 µM) | 45.4

From the supplement of paper PMC4604168 (melanoma cell lines)
